Experimental findings from PMC7819943, “Rice protein-binding microarrays: a tool to detect cis-acting elements near promoter regions in rice” are described below.

Chains of the proteins cited; added tags and fusions are not shown.
UniProt Q0JBA9, entry or part of it: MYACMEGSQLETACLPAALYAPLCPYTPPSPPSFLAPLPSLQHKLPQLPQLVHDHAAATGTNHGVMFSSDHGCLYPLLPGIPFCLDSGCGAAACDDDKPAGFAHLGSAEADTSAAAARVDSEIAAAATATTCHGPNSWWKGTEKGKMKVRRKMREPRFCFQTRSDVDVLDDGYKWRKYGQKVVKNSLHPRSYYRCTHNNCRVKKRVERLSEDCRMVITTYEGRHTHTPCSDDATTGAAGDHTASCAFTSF

The other results are listed elsewhere or left out.

The assay has as its target OsWRKY34 (Oryza sativa, UniProt Q0JBA9 1-250). Kind of assay: protein-binding microarray (RPBM); PBS, 2% BSA, 51.3 ng/ul salmon testes DNA, 50 uM zinc acetate, 200 nM TF, 25 C, 1 h; high values mean tight binding. To be noted: protein: recombinant; tags: N-terminal polyhistidine and DsRed monomer fusion (pET32a); label: CyDye5-dUTP incorporated in the synthesized complementary strand; 3' TTTTT single-stranded linker to array surface; dsDNA, one strand shown. In short, it runs like this:
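Ni–NTA purification followed expression in E. coli BL21-CodonPlus of transcription factors fused N-terminally to a polyhistidine tag and DsRed. At 200 nM in PBS with 2% BSA, salmon testes DNA and 50 µM zinc acetate, the protein was incubated for 1 h at 25 °C with a custom Agilent array that had been primer-extended with Cy5-dUTP and blocked with 2% BSA. After washing, the array was read on an Axon 4000B scanner. The binding signal is per-feature fluorescence intensity in arbitrary units.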
With “ACAGGAGCACCATCAACAGCTGACAACTTGGCATTGGTATCGGAGTCACCTAGTGCAG”, the binding signal was 8900 fluorescence intensity (a.u.).
The same measure for “ATAAAAAGTCAACGGCGTCATATATTAAAATATGAAGGTACGGAGTCACCTAGTGCAG”: 8990 fluorescence intensity (a.u.).
The same measure for “CATATACTCTATCCGTTTCTAAATATTTGACGCCGTTGACCGGAGTCACCTAGTGCAG”: 16200 fluorescence intensity (a.u.); for “CTGCTCTAGATTTTGTATCGTATCCTCGCGTTGCATTACGCGGAGTCACCTAGTGCAG”: 12200 fluorescence intensity (a.u.).
On to “ACCTCGCCACCGTCGCAACAACCGTGCCGCCCTCCACCAACGGAGTCACCTAGTGCAG”, for which the binding signal is 9210 fluorescence intensity (a.u.).
As to “AACACAAGGGCACTCTAGGATGGCTCACGTTGATCGTGCCCGGAGTCACCTAGTGCAG”, the binding signal is 8080 fluorescence intensity (a.u.).
To “ATGATGGATAAGTGGGTGGGCCAAACAGGTGCTCACGTGGCGGAGTCACCTAGTGCAG” belongs 9050 fluorescence intensity (a.u.).
The same measure for “GGGCATTTTAGTCTTTATGTTTATTTCGGTGGAAGGATATCGGAGTCACCTAGTGCAG”: 12300 fluorescence intensity (a.u.); for “TATTGACTTTGGTCAAAGTCAAACTGTTTTAAATTTCACTCGGAGTCACCTAGTGCAG”: 10500 fluorescence intensity (a.u.).
Consider “ACTTGGTTCTTGCTCATCATCTTTCGCTTGCTCGTCAGCTCGGAGTCACCTAGTGCAG”, for which the binding signal is 8360 fluorescence intensity (a.u.).
To “TGCACGTTCCATCCATCGATCACTTGCTGCGATCCGCGGCCGGAGTCACCTAGTGCAG” belongs 9240 fluorescence intensity (a.u.).
The same measure for “TTTTCTTACGGTACTGTCATCTCATTGTTTCCTCTAAAAACGGAGTCACCTAGTGCAG”: 11800 fluorescence intensity (a.u.).
The same measure for “GCCATTCCACATCAGTCCGTGCCGCTCTCTGCCCATTCTCCGGAGTCACCTAGTGCAG”: 18900 fluorescence intensity (a.u.); for “TCTTACCCCAAGTTTCCCAACTCATCTCTCTCGTTTTCCTCGGAGTCACCTAGTGCAG”: 10600 fluorescence intensity (a.u.).
Consider “CTTGTTGGGTCTTTTTTTTTTGGGCAAGATGGTGAATTGGCGGAGTCACCTAGTGCAG”, for which the binding signal is 8480 fluorescence intensity (a.u.).
To “GCGCGCCGCCTGACTTCCTCTCCTTCTCCGGTGCCTCACCCGGAGTCACCTAGTGCAG” belongs 8600 fluorescence intensity (a.u.); to “CTGTCAACGAGTGCCTATCTTCAATCAGCTATACCTATGTCGGAGTCACCTAGTGCAG”, 8800 fluorescence intensity (a.u.).
To “ATTCGTAATTCACTACTTATTTCGCATTTCAGTACAATATCGGAGTCACCTAGTGCAG” belongs 10600 fluorescence intensity (a.u.); to “TTGTTTTGTATTAGTAGTTAATTACCGCGCTCTCTAATACCGGAGTCACCTAGTGCAG”, 11400 fluorescence intensity (a.u.).
To “CTCTTTTAGGTGATTGTTCTTGTTCTTCTTCTTCGACATGCGGAGTCACCTAGTGCAG” belongs 9620 fluorescence intensity (a.u.); to “CCCACCCCATCCAACCTGTCTCCGCCAAATACTACTCCTCCGGAGTCACCTAGTGCAG”, 9150 fluorescence intensity (a.u.).
On to “TTTTGACGCATTTTATTGCTGAGTTGCTAGTAGGCATGATCGGAGTCACCTAGTGCAG”, for which the binding signal was 8030 fluorescence intensity (a.u.).
To “ACATCTCGCCGCCGGCGTCGTTTCCTGTTTCCCACAGGTTCGGAGTCACCTAGTGCAG” belongs 8980 fluorescence intensity (a.u.).
To “CTACATAGATTCTAACCTCTACTTTCAATTTTCTTATTTTCGGAGTCACCTAGTGCAG” belongs 8200 fluorescence intensity (a.u.).
Take “GTATTATGGGCCGTGGGTACCCGCGCGGGGCCGGGGACGGCGGAGTCACCTAGTGCAG”: the binding signal is 9710 fluorescence intensity (a.u.).
The same measure for “TTGCTCCATCCACGTTTAAATATTAAAATATTTTAATATTCGGAGTCACCTAGTGCAG”: 9900 fluorescence intensity (a.u.).
The same measure for “CCTTCTATTTTTCCGTCACATCAAATGTTTGGACACATGTCGGAGTCACCTAGTGCAG”: 9670 fluorescence intensity (a.u.).
The same measure for “GGCTCGGTTTGATATGTTTCGGCCTTGTTCGGTTGGTCCGCGGAGTCACCTAGTGCAG”: 9960 fluorescence intensity (a.u.); for “TCAGTCCATCCAACGCGTCTTCAGTCCTCACCCGCAGCAACGGAGTCACCTAGTGCAG”: 8870 fluorescence intensity (a.u.); for “TCTTCATCTGCCTCACTTTCTCTCTCTACTTCACTTCTTCCGGAGTCACCTAGTGCAG”: 8980 fluorescence intensity (a.u.).
On to “CTTCTCCCTCGTTTTCCGCGCGCATGCTTTTCAAACTAATCGGAGTCACCTAGTGCAG”, for which the binding signal is 9500 fluorescence intensity (a.u.).
The same measure for “GTACGTTTGCATTGCAGGCATTTCTTCTCCAAGGCGTCCGCGGAGTCACCTAGTGCAG”: 8800 fluorescence intensity (a.u.); for “ATTGTGCTTGTATGGTTCTGATTATATGATGCGTATTTTCCGGAGTCACCTAGTGCAG”: 10800 fluorescence intensity (a.u.); for “TGTTTAAACAACTCCTTACCTTTGCAATCTTGCATCCCAGCGGAGTCACCTAGTGCAG”: 8040 fluorescence intensity (a.u.).
To “TGACCATTTCCGGTGGGAGGGCGGAGGTTTTGTCCCGGCTCGGAGTCACCTAGTGCAG” belongs 8180 fluorescence intensity (a.u.); to “AACACTCACATCAAGTCATCAACCGACCTTGTCAAGTCAACGGAGTCACCTAGTGCAG”, 10600 fluorescence intensity (a.u.).
The same measure for “AACCTGTAACATCAGCGGTGCATTTTGGCAATCTTCTTTCCGGAGTCACCTAGTGCAG”: 9070 fluorescence intensity (a.u.); for “AGGAACTATGCCTGGCAGCATCCATGTCTCAGGTTTTTTTCGGAGTCACCTAGTGCAG”: 8880 fluorescence intensity (a.u.).
Regarding “CACCGCGCCGTGCGCCAGCACCCGCACTTGCGCCACCCACCGGAGTCACCTAGTGCAG”, the binding signal was 8920 fluorescence intensity (a.u.).
For “ACTTTTATTTATCTCTCTCTTCCACATAAGCATTTAGCTTCGGAGTCACCTAGTGCAG”, the binding signal is 8130 fluorescence intensity (a.u.).
The same measure for “TCCATCATCCAATACCGTTAACTTTTATTTTTCCGCTTTTCGGAGTCACCTAGTGCAG”: 12100 fluorescence intensity (a.u.); for “ATCTTTCTAATTTTGGGCCGTTCATTTGTTTAAGATTCGTCGGAGTCACCTAGTGCAG”: 10400 fluorescence intensity (a.u.).
